Reference: the supplement of paper PMC12067093, “Discovery and optimisation of a covalent ligand for TRIM25 and its application to targeted protein ubiquitination” (Chemical Science, 2025)
The other results are listed elsewhere or left out.

Compound: Cc1cc(ccc1-c1ccccc1)C(=O)N1CCCN(CC1)C(=O)CCl [compound 10]
Assay: probe-labelled cysteine peptide fold change vs DMSO (competition) (log2 fold change); higher = less target engagement (more negative = stronger competition)
Details: THP-1, incubation time: 4 h
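Note: competitive profiling in live THP-1 cells: cysteine peptides tagged with an iodoacetamide desthiobiotin (IA-DTB) probe, intensity after compound treatment relative to DMSO-treated cells.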

Target | probe-labelled cysteine peptide fold change (10 µM) | probe-labelled cysteine peptide fold change (50 µM)
BCAT2_O15382_135_LCLPSFDK (UniProt O15382) | 0.166 | 0.907
BPTF_Q12830_1357_LASADDIGTLICK (UniProt Q12830) | -0.334 | -0.457
BAG5_Q9UL15_360_LFACEEHPSHK (UniProt Q9UL15) | -0.0428 | -0.59
B2M_P61769_45_SNFLNCYVSGFHPSDIEVDLLK (UniProt P61769) | -0.0551 | -0.127
BCAT2_O15382_147_LCLPSFDKLELLECIR (UniProt O15382) | -0.159 | -0.0428
BAZ1A_Q9NRL2_764_QEQINCVTR (UniProt Q9NRL2) | 0.0365 | 0.135
BPNT1_O95861_243_ASAYVFASPGCKK (UniProt O95861) | -0.187 | -0.704
BARGIN_Q6ZT62_346_QTMASDPHSLEEFCSDPHAVAGALK (UniProt Q6ZT62) | -0.014 | 0.0458
BABAM2_Q9NXR7_245_IEHALGGSSALHIPAFPGGGCLIDYVPQVCHLLTNK (UniProt Q9NXR7) | -0.195 | -0.384
B4GALT7_Q9UBV7_75_ACPPEPPPEHWEEDASWGPHR (UniProt Q9UBV7) | -0.0506 | 0.198
BORCS6_Q96GS4_67_TSSCGVVHRPER (UniProt Q96GS4) | 0.0369 | -0.256
BABAM1_Q9NWV8_222_TILVYSRPPCQPQFSLTEPMK (UniProt Q9NWV8) | 0.0416 | -0.44
BPGM_P07738_145_VCDVPLDQLPR (UniProt P07738) | -0.153 | 0.073
BAZ1B_Q9UIG0_1205_LILCDECNK (UniProt Q9UIG0) | 0.00236 | -0.157
BAG5_Q9UL15_157_ICAVQEIIEDCMK (UniProt Q9UL15) | -0.0116 | 0.0188
BCAS3_Q9H6U6_442_GTSHVFPINPYGGQPCVR (UniProt Q9H6U6) | 0.16 | -0.00785
BAZ1B_Q9UIG0_1096_DFGECVIALQASVIK (UniProt Q9UIG0) | 0.0267 | 0.323
ATXN1L_P0C7T5_568_TTQLFSLPCHR (UniProt P0C7T5) | -0.104 | 0.176
BIRC6_Q9NR09_874_IQHIKDPQDTITSLILLPPDILDNREDDCEEPIEDMQLTSK (UniProt Q9NR09) | -0.303 | 0.602

As a working copy, some entries already given:
Target | probe-labelled cysteine peptide fold change (10 µM) | probe-labelled cysteine peptide fold change (50 µM)
BCAT2_O15382_147_LCLPSFDKLELLECIR (UniProt O15382) | -0.159 | -0.0428
BAZ1A_Q9NRL2_764_QEQINCVTR (UniProt Q9NRL2) | 0.0365 | 0.135
BPNT1_O95861_243_ASAYVFASPGCKK (UniProt O95861) | -0.187 | -0.704
BARGIN_Q6ZT62_346_QTMASDPHSLEEFCSDPHAVAGALK (UniProt Q6ZT62) | -0.014 | 0.0458
BABAM2_Q9NXR7_245_IEHALGGSSALHIPAFPGGGCLIDYVPQVCHLLTNK (UniProt Q9NXR7) | -0.195 | -0.384
B4GALT7_Q9UBV7_75_ACPPEPPPEHWEEDASWGPHR (UniProt Q9UBV7) | -0.0506 | 0.198
BORCS6_Q96GS4_67_TSSCGVVHRPER (UniProt Q96GS4) | 0.0369 | -0.256
BABAM1_Q9NWV8_222_TILVYSRPPCQPQFSLTEPMK (UniProt Q9NWV8) | 0.0416 | -0.44
BPGM_P07738_145_VCDVPLDQLPR (UniProt P07738) | -0.153 | 0.073
BAZ1B_Q9UIG0_1205_LILCDECNK (UniProt Q9UIG0) | 0.00236 | -0.157
BAG5_Q9UL15_157_ICAVQEIIEDCMK (UniProt Q9UL15) | -0.0116 | 0.0188
BCAS3_Q9H6U6_442_GTSHVFPINPYGGQPCVR (UniProt Q9H6U6) | 0.16 | -0.00785

Carrying on:

Target | probe-labelled cysteine peptide fold change (10 µM) | probe-labelled cysteine peptide fold change (50 µM)
BAG5_Q9UL15_166_ICAVQEIIEDCMK (UniProt Q9UL15) | -0.0972 | 0.0145
BAG1_Q99933_322_VQAFLAECDTVEQNICQETER (UniProt Q99933) | 0.15 | -0.17
BAG6_P46379_349_CNLACTPPR (UniProt P46379) | -0.198 | -0.482
AZU1_P20160_52_HFCGGALIHAR (UniProt P20160) | -0.267 | -0.0232
AURKB_Q96GD4_170_SCTFDEQR (UniProt Q96GD4) | -0.0608 | 0.205
BAZ1B_Q9UIG0_1213_AFHLFCLRPALYEVPDGEWQCPACQPATAR (UniProt Q9UIG0) | -0.0307 | -0.155
BPNT1_O95861_59_LAQMSICSSLAR (UniProt O95861) | -0.159 | 0.163
BCAR3_O75815_408_GSDSQLCPKPPPKPCK (UniProt O75815) | -0.265 | -0.992
BIRC6_Q9NR09_355_HSPNCPFVK (UniProt Q9NR09) | 0.0596 | -0.108
BAIAP2_Q9UQB8_195_FCFLVEK (UniProt Q9UQB8) | -0.193 | -0.118
BLM_P54132_1364_GGSATCR (UniProt P54132) | -0.0151 | -0.142
ATXN7_O15265_347_EFDPDIHCGVIDLDTK (UniProt O15265) | 0.0912 | 0.239
B4GAT1_O43505_146_EEAQLATVLAYALSSHCPDMR (UniProt O43505+B4GAT1) | 0.0128 | 0.305
BRAT1_Q6PJG6_289_ALSCLGPTHMGPLALGILK (UniProt Q6PJG6) | -0.319 | -0.856
BAZ2A_Q9UIF9_1037_SEVEMEGPEECLGR (UniProt Q9UIF9) | -0.385 | -0.476
BAZ2A_Q9UIF9_888_DVPSLGVLQEGLLCQGDSLGEVQDLLVR (UniProt Q9UIF9) | -0.134 | 0.198
BAZ1A_Q9NRL2_621_ILHALCGK (UniProt Q9NRL2) | 0.0294 | 0.339
BCKDHB_P21953_361_VCGYDTPFPHIFEPFYIPDK (UniProt P21953) | -0.0395 | 0.155
BAZ2A_Q9UIF9_917_AALHDPGFPSYCQSLK (UniProt Q9UIF9) | 0.0356 | 0.133
